Experimental data from US20240101654A1.
No constants are given. Whether binding was seen depends on the method and setting. Some entries that bind do so weakly or less than the wild type.

Sequences of proteins named here, by UniProt entry; tags and fusion partners are left off. A change or cut given only in a name is not applied to a line headed by its entry. A line that says so, or that is headed by a name, gives the form on record, which may keep a tag or linker.
AD-associated Tau in brain extracts of patients with AD (P10636, form named): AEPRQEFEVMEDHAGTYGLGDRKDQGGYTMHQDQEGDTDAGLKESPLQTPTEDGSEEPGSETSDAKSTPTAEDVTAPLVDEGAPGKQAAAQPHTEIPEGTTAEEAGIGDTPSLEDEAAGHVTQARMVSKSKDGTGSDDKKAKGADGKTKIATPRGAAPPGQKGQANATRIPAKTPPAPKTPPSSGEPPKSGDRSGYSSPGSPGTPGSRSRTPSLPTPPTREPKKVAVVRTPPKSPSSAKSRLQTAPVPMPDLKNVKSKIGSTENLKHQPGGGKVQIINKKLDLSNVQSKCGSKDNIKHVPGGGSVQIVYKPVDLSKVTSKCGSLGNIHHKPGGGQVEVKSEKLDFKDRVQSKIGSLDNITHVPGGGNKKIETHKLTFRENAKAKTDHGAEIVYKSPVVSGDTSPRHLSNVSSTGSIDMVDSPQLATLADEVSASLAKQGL
human Tau P301L in tissue of transgenic mice hemizygous for Tau P301L (Q-TauP301L) (P10636, form named): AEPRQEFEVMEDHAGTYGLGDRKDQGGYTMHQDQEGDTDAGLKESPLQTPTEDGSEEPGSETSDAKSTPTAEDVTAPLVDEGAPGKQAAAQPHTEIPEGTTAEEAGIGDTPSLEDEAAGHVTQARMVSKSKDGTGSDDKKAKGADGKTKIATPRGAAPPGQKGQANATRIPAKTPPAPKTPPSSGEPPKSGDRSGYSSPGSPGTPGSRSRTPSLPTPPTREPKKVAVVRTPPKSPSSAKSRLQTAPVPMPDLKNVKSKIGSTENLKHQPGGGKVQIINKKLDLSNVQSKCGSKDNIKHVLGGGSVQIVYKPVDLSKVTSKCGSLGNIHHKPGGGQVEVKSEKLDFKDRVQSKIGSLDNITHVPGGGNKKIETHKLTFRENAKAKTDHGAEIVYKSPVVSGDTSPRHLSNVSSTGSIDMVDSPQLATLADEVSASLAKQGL

Legend:
[1] = target: AD-associated Tau in brain extracts of patients with AD (human) (UniProt P10636); assay: immunoprecipitation from AD brain extract, antibody at 10 µg/ml
[2] = target: pathological hyperphosphorylated Tau filaments in human AD, PSP and PiD brain tissue (human) (UniProt P10636); assay: IHC, human AD brain tissue (Table I)
[3] = target: pathological hyperphosphorylated Tau filaments in human AD, PSP and PiD brain tissue (human) (UniProt P10636); assay: IHC on human PSP and PiD brain sections, antibody at 25 nM
[4] = target: pathological hyperphosphorylated Tau filaments in human AD, PSP and PiD brain tissue (human) (UniProt P10636); assay: IHC on human AD brain sections, antibody at 25 nM
[5] = target: pathological hyperphosphorylated Tau filaments in human AD, PSP and PiD brain tissue (human) (UniProt P10636); assay: IHC on human AD, PSP and PiD brain sections, antibody at 25 nM
[6] = target: endogenous Tau in human non-neurological control brain (human) (UniProt P10636); assay: immunoprecipitation from control brain homogenate, immunoblot with Tau 12
[7] = target: AD-associated Tau in brain extracts of patients with AD (human) (UniProt P10636); assay: immunoprecipitation, human AD brain extracts (Table I)
[8] = target: endogenous Tau in human non-neurological control brain (human) (UniProt P10636); assay: immunoprecipitation from control brain extract, antibody at 10 µg/ml
[9] = target: pathological hyperphosphorylated Tau filaments in human AD, PSP and PiD brain tissue (human) (UniProt P10636); assay: IHC on human AD brain sections, high magnification
[10] = target: pathological hyperphosphorylated Tau filaments in human AD, PSP and PiD brain tissue (human) (UniProt P10636); assay: IHC on human AD, PSP and PiD brain sections
[11] = target: human Tau P301L in tissue of transgenic mice hemizygous for Tau P301L (Q-TauP301L) (human) (UniProt P10636); assay: IHC, tissue of Tau P301L transgenic mice (Table I)
[12] = target: AD-associated Tau in brain extracts of patients with AD (human) (UniProt P10636); assay: immunoprecipitation from AD brain homogenate, immunoblot with Tau 12

Measured: binding

B1: NI-502.4P3 (antibody, V domains shown)
VH: EVQLVQSGAEVKKPGESLKISCKVSGYDFSKYWIGWVRQMPGKGLEWMGLIYPGDSDTRYSPSLEGQVSISADKSISAAYLQFSSLKASDSAMYYCVRKGYSAYLGGWFDPWGQGTLVTVSS
VL: DIQLTQSPDSLAASLGERVTINCRSSQNIFYNSNNKNFLAWYQQKAGQSPKLLIYWASTRESGVPDRFSGSGSGTDFTLTISGLQAGDVAVYFCQQYFTDAPTFGGGTKVEIK
binds: all assays above

B2: NI-502.8H1 (antibody, V domains shown)
VH: EVQLVESGGGLVQPGGSLRLSCAASGFTFSIYTMSWVRQAPGKGLEWVSAILSDGSTYYADSVEGRFTISRDNSKTTLYLQMNSLTAEDTAVYYCTKRVEGSFRGWGQGTLVTVSS
VL: EIVMTQSPGTLSLSPGESATLSCRASQSVSTTYLAWYQQKPGQAPRLLIYGASSRATGIPDRFSGSGSGTDFTLTISRLEPEDFAVYYCQQYGGSRLITFGQGTRLEIK
binds: [11]
